Laboratory results: paper PMC10837246
Results are given in words; binding and its absence hold for the method and conditions named. Binding seen in cells or lysates may run through a third protein. Some entries that bind do so weakly or less than the wild type.

Protein sequences, listed by entry. Tags and fused reporters are not part of them. Lines headed by an entry give the natural chain unless they say otherwise; changes in a name come on top. Residues count along the entry.
UniProt Q62407, residues 855-3262: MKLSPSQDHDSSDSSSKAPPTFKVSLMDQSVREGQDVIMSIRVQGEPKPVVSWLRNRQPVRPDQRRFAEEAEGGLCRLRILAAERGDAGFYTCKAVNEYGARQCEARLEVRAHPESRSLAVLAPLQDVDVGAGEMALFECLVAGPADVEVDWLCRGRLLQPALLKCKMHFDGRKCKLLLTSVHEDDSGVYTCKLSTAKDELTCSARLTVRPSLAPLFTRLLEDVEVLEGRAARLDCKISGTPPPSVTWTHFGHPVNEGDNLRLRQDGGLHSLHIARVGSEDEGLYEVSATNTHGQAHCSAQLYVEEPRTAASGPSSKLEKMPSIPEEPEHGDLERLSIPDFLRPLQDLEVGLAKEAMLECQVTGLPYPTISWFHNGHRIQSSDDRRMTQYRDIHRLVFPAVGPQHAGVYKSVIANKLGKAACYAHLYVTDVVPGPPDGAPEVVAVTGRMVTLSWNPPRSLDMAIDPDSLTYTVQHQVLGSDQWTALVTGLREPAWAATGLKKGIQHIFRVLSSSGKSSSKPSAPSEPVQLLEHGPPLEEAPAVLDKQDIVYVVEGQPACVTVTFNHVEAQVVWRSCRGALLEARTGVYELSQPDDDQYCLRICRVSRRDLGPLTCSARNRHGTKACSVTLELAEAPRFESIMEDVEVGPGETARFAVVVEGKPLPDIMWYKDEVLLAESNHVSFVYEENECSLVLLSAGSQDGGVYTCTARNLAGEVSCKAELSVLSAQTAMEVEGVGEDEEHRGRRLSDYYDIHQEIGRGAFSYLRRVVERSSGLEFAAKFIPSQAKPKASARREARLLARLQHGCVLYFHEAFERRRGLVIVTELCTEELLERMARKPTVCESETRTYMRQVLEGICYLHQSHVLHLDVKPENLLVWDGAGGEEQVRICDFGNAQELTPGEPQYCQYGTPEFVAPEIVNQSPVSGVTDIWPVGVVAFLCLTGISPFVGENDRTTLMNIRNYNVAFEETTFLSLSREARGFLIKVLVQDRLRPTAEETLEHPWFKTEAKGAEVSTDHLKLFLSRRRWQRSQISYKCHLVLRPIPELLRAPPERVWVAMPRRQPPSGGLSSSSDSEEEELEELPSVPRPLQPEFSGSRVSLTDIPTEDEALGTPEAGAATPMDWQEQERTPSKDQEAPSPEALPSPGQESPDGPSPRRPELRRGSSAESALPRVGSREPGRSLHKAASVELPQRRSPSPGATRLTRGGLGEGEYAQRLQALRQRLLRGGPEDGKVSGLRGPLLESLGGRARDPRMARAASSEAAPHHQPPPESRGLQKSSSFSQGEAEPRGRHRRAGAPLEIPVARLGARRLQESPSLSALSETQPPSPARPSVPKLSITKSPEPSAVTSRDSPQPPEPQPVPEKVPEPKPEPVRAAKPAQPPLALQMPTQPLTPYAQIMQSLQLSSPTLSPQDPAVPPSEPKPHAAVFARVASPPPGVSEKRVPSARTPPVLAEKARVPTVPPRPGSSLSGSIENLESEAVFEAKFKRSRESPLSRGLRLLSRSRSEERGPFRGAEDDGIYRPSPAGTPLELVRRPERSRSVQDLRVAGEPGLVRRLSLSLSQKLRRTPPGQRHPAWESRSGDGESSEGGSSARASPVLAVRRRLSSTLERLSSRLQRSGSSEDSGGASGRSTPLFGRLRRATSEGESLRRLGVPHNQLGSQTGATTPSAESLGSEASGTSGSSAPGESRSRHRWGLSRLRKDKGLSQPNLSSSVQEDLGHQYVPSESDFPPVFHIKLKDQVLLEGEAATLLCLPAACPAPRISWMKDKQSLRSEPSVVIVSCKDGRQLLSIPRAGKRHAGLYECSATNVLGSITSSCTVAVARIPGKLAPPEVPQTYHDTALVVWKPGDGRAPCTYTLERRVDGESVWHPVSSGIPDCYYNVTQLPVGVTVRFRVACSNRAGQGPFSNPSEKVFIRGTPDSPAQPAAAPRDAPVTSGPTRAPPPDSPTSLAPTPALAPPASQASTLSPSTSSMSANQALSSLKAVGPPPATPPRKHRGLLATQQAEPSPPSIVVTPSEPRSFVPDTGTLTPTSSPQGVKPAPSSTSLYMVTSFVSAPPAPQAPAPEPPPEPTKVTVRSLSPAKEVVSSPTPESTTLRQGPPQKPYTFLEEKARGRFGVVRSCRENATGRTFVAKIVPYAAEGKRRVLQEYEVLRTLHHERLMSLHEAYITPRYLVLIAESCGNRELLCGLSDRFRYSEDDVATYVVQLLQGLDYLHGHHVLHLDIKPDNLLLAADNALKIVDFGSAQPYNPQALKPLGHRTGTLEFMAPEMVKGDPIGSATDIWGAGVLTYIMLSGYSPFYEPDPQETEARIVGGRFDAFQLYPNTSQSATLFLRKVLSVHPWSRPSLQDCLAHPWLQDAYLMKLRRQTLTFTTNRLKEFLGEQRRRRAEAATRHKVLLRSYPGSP
UniProt Q3UMR5, residues 50-350: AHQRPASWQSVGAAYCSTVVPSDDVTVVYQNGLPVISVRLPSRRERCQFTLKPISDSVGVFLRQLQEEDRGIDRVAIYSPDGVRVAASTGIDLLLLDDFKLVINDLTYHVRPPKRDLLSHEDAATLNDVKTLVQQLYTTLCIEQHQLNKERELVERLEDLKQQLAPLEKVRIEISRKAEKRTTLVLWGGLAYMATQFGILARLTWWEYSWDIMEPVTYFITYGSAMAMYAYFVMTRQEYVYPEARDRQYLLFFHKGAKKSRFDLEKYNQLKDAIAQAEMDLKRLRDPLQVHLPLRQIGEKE

Experiments:
[1] = biological target: T1, Peroxisome proliferator-activated receptor γ coactivator 1α (PGC-1α) (mouse (endogenous in adult mouse heart)) (UniProt O70343); test: co-IP; adult mouse heart homogenised in Pierce IP lysis buffer with protease and phosphatase inhibitors; 1500 μg protein pre-cleared, incubated with Speg or PGC-1α antibody overnight at 4 °C, magnetic Protein-A Dynabeads 2 h at 4 °C; Western blot; normal rabbit IgG as control
T1 sequence: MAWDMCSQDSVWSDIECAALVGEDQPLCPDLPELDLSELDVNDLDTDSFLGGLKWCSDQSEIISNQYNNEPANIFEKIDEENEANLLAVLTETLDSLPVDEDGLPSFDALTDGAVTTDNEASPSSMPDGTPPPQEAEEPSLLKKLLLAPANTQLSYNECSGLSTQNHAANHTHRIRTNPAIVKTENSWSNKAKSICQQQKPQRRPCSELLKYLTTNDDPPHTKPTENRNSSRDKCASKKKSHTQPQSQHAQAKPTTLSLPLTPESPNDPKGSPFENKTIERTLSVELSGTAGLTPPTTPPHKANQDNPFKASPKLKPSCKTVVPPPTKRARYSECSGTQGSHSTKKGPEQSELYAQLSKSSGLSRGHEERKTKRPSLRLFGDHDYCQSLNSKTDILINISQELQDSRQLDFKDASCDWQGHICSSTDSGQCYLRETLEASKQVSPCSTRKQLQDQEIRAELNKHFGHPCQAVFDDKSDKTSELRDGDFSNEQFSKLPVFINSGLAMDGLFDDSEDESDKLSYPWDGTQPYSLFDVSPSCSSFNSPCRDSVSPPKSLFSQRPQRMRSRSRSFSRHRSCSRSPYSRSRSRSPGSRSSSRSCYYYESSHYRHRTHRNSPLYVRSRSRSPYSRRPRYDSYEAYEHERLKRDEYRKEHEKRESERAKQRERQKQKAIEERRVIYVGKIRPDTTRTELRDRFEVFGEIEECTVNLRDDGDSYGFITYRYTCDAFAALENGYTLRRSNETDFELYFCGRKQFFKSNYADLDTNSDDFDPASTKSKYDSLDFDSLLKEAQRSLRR

[2] = biological target: Striated preferentially expressed gene (Speg), Spegα isoform (mouse (endogenous in adult mouse heart)) (UniProt Q62407); test: as above

binding [1] | binding [2] | Substance
binds |  | Striated preferentially expressed gene (Speg), Spegα isoform (from UniProt Q62407-4 1-2408)
 | no binding | Mitochondrial calcium uniporter (MCU) (from UniProt Q3UMR5 50-350)
